Reference: PMC10443802 (JCI Insight, 2023)

Tested on: OATP1B2
Experiment: Untargeted metabolomics of plasma and DRG, WT vs OATP1B2-deficient mice
Type: in vivo, mouse
[1] = Figure 5B source data (volcano plot), untargeted metabolomics, WT vs OATP1B2-deficient mice, log2 fold change of metabolite level
[2] = untargeted metabolomics, WT vs OATP1B2-deficient mice, supplement sheet "Figure 5B"
[3] = untargeted metabolomics, sheet "Figure 5C", WT vs OATP1B2-deficient mice
[4] = untargeted metabolomics, WT vs OATP1B2-deficient mice, supplement sheet "Figure 5B" (volcano plot)

Row | Compound | Log2FoldChange [2] | Log2FoldChange [3] | further results
1 | O=C(O)c1c[nH]c2ccccc12 [indole-3-carboxylate] |  |  | Log2FoldChange [1]: -0.1844
2 | O=c1[nH]c(=O)c2nc[nH]c2[nH]1 [xanthine] | 0.189 | 0.2265 | 
3 | C[N+](C)(C)CC(=O)O [betaine] | 0.2016 |  | 
4 | CCCCCCCCCCCCCCC[C@@H](O)[C@@H](N)CO [sphinganine] |  | 0 | 
5 | C[C@H](CCC(=O)O)[C@H]1CC[C@H]2[C@@H]3[C@@H](O)C[C@@H]4C[C@H](O)CC[C@]4(C)[C@H]3C[C@H](O)[C@]12C [ursocholate] |  |  | Log2FoldChange [4]: 5.0781
6 | Nc1nc2c(ncn2[C@@H]2O[C@H](COP(=O)(O)O)[C@@H](O)[C@H]2O)c(=O)[nH]1 [guanosine 5'-monophosphate (5'-GMP)] |  | 0 | 
7 | O=C(O)c1ccccn1 [picolinate] | 0.08406 |  | 
8 | CCC=CCC=CCC=CCC=CCC=CCC=CCCC(=O)OCC(O)CO (stereo not shown) [1-docosahexaenoylglycerol (22:6)] |  | 0.4647 | Log2FoldChange [1]: -0.3959
9 | CCCCCCCCCCCCCCCC(=O)OCC(O)COP(=O)(O)OCC(O)CO (stereo not shown) [1-palmitoyl-GPG (16:0)*] |  | 0.4005 | Log2FoldChange [4]: 2.433
10 | Nc1ncnc2c1ncn2[C@@H]1O[C@@H]2COP(=O)(O)O[C@H]2[C@H]1O |  | -0.2176 | 
11 | NCCc1c[nH]cn1 [histamine] |  | 0.3219 | 
12 | CCCC/C=C\CCCCCCCC(=O)O [myristoleate (14:1n5)] | -0.1681 |  | 
13 | O=C(O)C(O)Cc1ccccc1 (stereo not shown) [phenyllactate (PLA)] | 0.1375 |  | 
14 | CCCCC/C=C\C/C=C\CCCCCCCC(=O)OC[C@@H](O)COP(=O)(O)OC[C@H](N)C(=O)O [1-linoleoyl-GPS (18:2)*] | 0.2016 | 0.669 | 
15 | CCCCCCCCCCCCCCCCC(N)=O [margaramide (17:0)*] |  |  | Log2FoldChange [4]: 0.5361
16 | O=C(O)C1CCCCN1 (stereo not shown) [pipecolate] |  | 0.2016 | 

Row | Compound | Log2FoldChange [2] | Log2FoldChange [3] | further results
17 | O=C(Cc1ccccc1)NCCS(=O)(=O)O [phenylacetyltaurine] |  |  | Log2FoldChange [4]: 0.4005
18 | CCCCC/C=C\C/C=C\C/C=C\C/C=C\CCCC(=O)NCCO [arachidonoyl ethanolamide] |  | 0.263 | 
19 | O=C(O)[C@H](O)[C@H](O)CO [erythronate*] | 0.1375 | 0.3448 | 
20 | CCCCC/C=C\C[C@H](O)/C=C/C=C\C/C=C\CCCC(=O)O [12-HETE] | 0.05658 | 0.2869 | 
21 | CCCCC/C=C\C/C=C\CCCCCCCCCCCC(=O)O [docosadienoate (22:2n6)] | 0.111 |  | 
22 | CCCCCCCC/C=C\CCCCCCCC(=O)NCCO [oleoyl ethanolamide] |  | 0.09761 | Log2FoldChange [1]: -0.2515
23 | C[C@H](CCC(=O)NCCS(=O)(=O)O)[C@H]1CC[C@H]2[C@@H]3CC[C@@H]4C[C@H](O)CC[C@]4(C)[C@H]3C[C@H](O)[C@]12C [taurodeoxycholate] |  |  | Log2FoldChange [4]: 1.7866
24 | CN1CCCCC1C(=O)O (stereo not shown) [N-methylpipecolate] |  |  | Log2FoldChange [1]: -0.6439
25 | Cc1ccc(OS(=O)(=O)O)c(O)c1 [4-methylcatechol sulfate] | 0.09761 |  | 
26 | C=CCc1ccc(OS(=O)(=O)O)c(O)c1 [4-allylcatechol sulfate] |  |  | Log2FoldChange [4]: 0.3448
27 | Cc1ccc(O[C@@H]2O[C@H](C(=O)O)[C@@H](O)[C@H](O)[C@H]2O)cc1 [p-cresol glucuronide*] |  |  | Log2FoldChange (mouse, in vivo): 3.558
28 | CC(C)CC(=O)NCC(=O)O [isovalerylglycine] |  |  | Log2FoldChange [4]: 0.5656
29 | CCCCCCC(O)C(=O)O (stereo not shown) [2-hydroxyoctanoate] | -0.1203 |  | 
30 | NCCC(=O)O [beta-alanine] | 0.02857 |  | 
31 | NCCCC[C@H](NC(=O)CC[C@H](N)C(=O)O)C(=O)O [gamma-glutamyl-alpha-lysine] | -0.1681 | 0.1763 | 
32 | CCCCCCCCCCCCCC/C=C/OCC(O)COP(=O)([O-])OCC[N+](C)(C)C (stereo not shown) [1-(1-enyl-palmitoyl)-GPC (P-16:0)*] |  |  | Log2FoldChange [4]: 0.669

Where a name gives a salt, the structure may show the parent alone.
